Measured values: patent publication US20260183350A1, “ANTIBIOTIC-RESISTANT BACTERIA” (priority 2022, published 2026)

How the values were obtained:
[1] = test system: faecal microbiota; assay: Faecal batch culture with antibiotics promoting CRE colonisation: 16S rRNA gene sequencing and qPCR; assay type: cell-based, human; conditions: 11 healthy donors, antibiotic at faecal concentration, 24 hours anaerobic
Procedure: The inventors performed faecal culture experiments to measure the effects of eight broad-spectrum antibiotics on the faecal microbiota collected from 11 healthy human donors. Faecal culture experiments were performed under anaerobic conditions using a complex gut growth medium that was designed to mimic the nutrients found in the human distal gut (McDonald, J. A. et al. Evaluation of microbial community reproducibility, stability and composition in a human distal gut chemostat model. J. Microbiol. Methods 95, 167-174 (2013)). […] Moon, Y. S., Chung, K. C. & Gill, M. A. Pharmacokinetics of meropenem in animals, healthy volunteers, and patients. Clin Infect Dis 24, S249-S255 (1997). Kager, L., Brismar, B., Malmborg, A. S. & Nord, C. E. Imipenem concentrations in colorectal surgery and impact on the colonic microflora. Antimicrob Agents Chemother 33, 204-8 (1989). Pletz, M. et al. Ertapenem pharmacokinetics and impact on intestinal microflora, in comparison to those of ceftriaxone, after multiple dosing in male and female volunteers. Antimicrob Agents Chemother 48, 3765-72 (2004). Nord, C. E., Brismar, B., Kasholm-Tengve, B. & Tunevall, G. Effect of piperacillin/tazobactam treatment on human bowel microflora. J Antimicrob Chemother 31, 61-5 (1993). […] Antimicrob Agents Chemother 63, 2244 (2019). […]

[2] = test system: faecal microbiota; assay: Faecal batch culture with antibiotics promoting CRE colonisation: 1H-NMR of nutrients and metabolites; assay type: cell-based, human; conditions: 11 healthy donors, antibiotic at faecal concentration, 24 hours anaerobic
Procedure: The inventors performed faecal culture experiments to measure the effects of eight broad-spectrum antibiotics on the faecal microbiota collected from 11 healthy human donors. Faecal culture experiments were performed under anaerobic conditions using a complex gut growth medium that was designed to mimic the nutrients found in the human distal gut (McDonald, J. A. et al. Evaluation of microbial community reproducibility, stability and composition in a human distal gut chemostat model. J. Microbiol. Methods 95, 167-174 (2013)). […] Moon, Y. S., Chung, K. C. & Gill, M. A. Pharmacokinetics of meropenem in animals, healthy volunteers, and patients. Clin Infect Dis 24, S249-S255 (1997). Kager, L., Brismar, B., Malmborg, A. S. & Nord, C. […] Samples were analysed by ^1H-NMR spectroscopy (for nutrient and metabolite profiling) and […] rRNA gene sequencing with 16S rRNA gene qPCR (for bacterial composition and biomass) (McDonald, J. A. K. et a/. Inhibiting Growth of Clostridioides difficile by Restoring Valerate, Produced by the Intestinal Microbiota. Gastroenterology 155, 1495-1507 (2018)).
Supernatants were prepared from faeces by vortexing 300 mg of faeces in 900 μl of HPLC-grade water for 10 minutes at 3000 rpm followed by centrifugation at 17,000×g for 10 minutes at 4° C. […] Supernatants were frozen at −80° C. until they were ready for analysis. […]

## O=C(O)c1cn(C2CC2)c2cc(N3CCNCC3)c(F)cc2c1=O [CIP, ciprofloxacin]
[1]
  Change in abundance of bacterial families relative to antibiotic-naive faecal cultures: decreased the abundance of Bifidobacteriaceae, Barnesiellaceae, and Sutterellaceae
[2]
  Change in butyrate concentration in faecal cultures: decreased
